Source: PubChem BioAssay AID540256 (National Center for Advancing Translational Sciences (NCATS), 2011)
Values joined by “and” are separate entries in the source; they are usually repeats but may differ in a detail not shown here. Identical values can stand only once. About 3,700 (1.2%) of roughly 300,000 compounds were called active. Inconclusive results, whose numbers are uncertain, are shown with a selection of clear calls. Calls come from the whole dose curve; tested in HEK293 cells. Potencies of inconclusive entries are doubtful fits and often do not repeat.

Assay: qHTS for Inhibitors of binding or entry into cells for Lassa Virus; note: nearly all actives have a fitted effect of over 50% in size
Conditions: Lassa virus pseudotype entry inhibition, cell reporter; activity change, negative = inhibition: at 37.9 µM (top of the series) unless noted
% is set by controls: 0 for no effect and ±100 for the full control effect; potency is the fitted concentration of half-maximal effect.

SMILES	Potency	activity change, negative = inhibition
Cc1ccc(OCCCCNC(C)c2ccccc2)c(C)c1 (stereo not drawn)	inconclusive: 15.8 µM [inhibitor, single point]	–
CCOc1ccccc1C(=S)NC1CCCCC1	inconclusive: 20 µM [inhibitor, single point]	–
CC(C)(C)c1ccc(C(=O)NCC2CCCN2S(=O)(=O)c2ccccc2)cc1 (stereo not drawn)	inconclusive: 8.91 µM [inhibitor, single point]	–
Cc1ccc(-c2nc(C#N)c(NCCCn3ccnc3)o2)cc1	inconclusive: 35.5 µM [activator, partial curve, poor fit]	–
O=C(CC(=O)Nc1nc(C23CC4CC(CC(C4)C2)C3)cs1)NCCO	inconclusive: 20 µM [inhibitor, single point]	–
CC12CCC(C(=O)NC(c3ccccc3)c3ccccc3)(OC1=O)C2(C)C (stereo not drawn)	inconclusive: 23.1 µM [inhibitor, single point]	–
COc1ccccc1N=c1oc2c(OC)cccc2cc1C(=O)NCc1ccco1	inconclusive: 20.6 µM [inhibitor, single point]	–
CCN(CC)CCCNC(=O)CSc1nc(-c2cccs2)cc(C(F)(F)F)n1	inconclusive: 7.94 µM [activator, partial curve, poor fit]	–
CCC1CCc2sc(C(=O)NCC(c3ccc(OC)cc3)N3CCCC3)cc2C1 (stereo not drawn)	inconclusive: 17.8 µM [inhibitor, single point]	–
O=C(N/N=C/c1sc2ccccc2c1O)c1cccc2ccccc12	inconclusive: 14.1 µM [inhibitor, partial curve, poor fit]	–
COc1ccc(OC)c(C(O)c2coc3ccc(O)c(CN4CCOCC4)c23)c1 (stereo not drawn)	inconclusive: 4.11 µM [inhibitor, full curve, poor fit]	–
Cc1ccc(C)c(N(CC(=O)NC2CCCC2)S(=O)(=O)c2ccccc2)c1	–	inactive: -7.34%
COc1cc(/C=N/Nc2ccc(Cl)c(C(=O)O)c2)ccc1OC(=O)c1ccccc1F	inconclusive: 2 µM [inhibitor, full curve]	–
COCC(=O)N(CCc1ccc(OC)c(OC)c1)Cc1cc2cc(C)ccc2nc1Cl	inconclusive: 35.5 µM [inhibitor, single point]	–
O=C(NCC1CCCN(C(=O)c2cccnc2)C1)c1ccc(-c2ccccc2)cc1 (stereo not drawn)	inconclusive: 10 µM [inhibitor, partial curve, poor fit]	–
O=C(C=Cc1ccco1)N1CCOCC1	–	inactive: 0.455% [at 46.1 µM]
CCOc1ccc(/C=N/NC(=O)c2[nH]ncc2Br)c(O)c1	active: 1.83 µM	–
CCc1ccc2c(COC(=O)c3n[nH]c4ccccc34)cc(=O)oc2c1	–	inactive: -21.2%
CCc1ccc2nc(SCC(=O)Nc3ccccc3N3CCOCC3)c(C#N)cc2c1	inconclusive: 5.01 µM [inhibitor, single point]	–
CC1CCc2cc(F)ccc2N1C(=O)c1ccc2c(c1)OCO2 (stereo not drawn)	inconclusive: 18.3 µM [inhibitor, single point]	–
CC1=NN(C(=O)c2csc(C)c2)C(O)(C(F)(F)F)C1 (stereo not drawn)	–	inactive: 10.5%
Cc1ccc(-c2nn(CC(=O)NC3CCCC3)c3c2cnc2ccccc23)cc1	–	inactive: 16.9% [at 46.1 µM]
CCCc1nc2ccccc2n1Cc1ccccc1OC	inconclusive: 3.55 µM [inhibitor, full curve, poor fit]	–

SMILES	Potency	activity change, negative = inhibition
COc1ccccc1OCCCOc1c(Cl)cc(C)cc1Cl	–	inactive: 2.07%
Cc1ccc(Nc2nc(CSc3nnc(-c4ccc(F)cc4)n3C)cs2)cc1	inconclusive: 35.5 µM [inhibitor, single point]	–
O=C(COc1ccccc1F)Nc1nc(-c2ccccn2)cs1	–	inactive: -25.7% [at 46.1 µM]
COc1cc(/C=C/c2nc(C#N)c(NCCc3ccccc3)o2)cc(OC)c1OC	inconclusive: 17.8 µM [inhibitor, single point]	–
Cc1cccc(NC(c2ccccc2C)c2ccc3ccc(C)nc3c2O)n1 (stereo not drawn)	inconclusive: 35.5 µM [inhibitor, single point]	–
COc1ccc(/C(C)=N/N2C(C)CCCC2C)c(OC)c1 (stereo not drawn)	inconclusive: 20 µM [inhibitor, single point]	–
COCCn1c(=NC(C)=O)sc2cc([N+](=O)[O-])ccc21	–	inactive: 2.37%
O=C(N/N=C/c1ccccc1F)c1csc2c1CCCC2	active: 11.2 µM	–
O=[N+]([O-])c1cccnc1N1CCC(c2cc(-c3cccc(C(F)(F)F)c3)n[nH]2)CC1	inconclusive: 28.2 µM [inhibitor, single point]	–
CCOc1ccc(CCNC(=O)c2nnn(CC(=O)Nc3ccc(OC)c(OC)c3)c2N)cc1OCC	inconclusive: 11.2 µM [inhibitor, partial curve]	–
Cc1cc(C)c2c(c1)CC(C)(C)CC2=O	inconclusive: 7.94 µM [activator, partial curve, poor fit]	–
Cc1ccc(CN(C)S(=O)(=O)c2c(C)noc2/C=C/N(C)C)cc1	inconclusive: 35.5 µM [inhibitor, partial curve, poor fit]	–
CC(=O)N(C)c1ccc(C=C2C=Cc3ccccc32)cc1	inconclusive: 11.2 µM [inhibitor, partial curve]	–
Cc1ccc(NC(=S)N2CCC(C(=O)c3ccc(F)cc3)CC2)cc1C	inconclusive: 8.91 µM [inhibitor, partial curve, poor fit]	–
COc1ccc(S(=O)(=O)N2CCCCCC2)cc1NC(=O)Cc1n[nH]c(=O)c2ccccc12	inconclusive: 17.8 µM [inhibitor, single point]	–
CNC(=O)COC(=O)c1cc2c(C)nn(-c3ccc(F)cc3)c2s1	–	inactive: -16.9%
S=C(Nc1cccc(Cl)c1Cl)Nn1cnnc1	–	inactive: 2.79%
Cc1c(C(=O)Nc2ccncc2)oc2c1C(=O)CC(C)(C)C2	inconclusive: 4.11 µM [inhibitor, single point]	–
CC(C)Oc1ccccc1C1Nc2ccccc2C(=O)N1c1ccc2c(c1)OCCO2 (stereo not drawn)	inconclusive: 25.1 µM [inhibitor, single point]	–
COc1ccc(CCNc2oc(-c3cccc4ccccc34)nc2P(=O)(OC)OC)cc1OC	–	inactive: -10.3%
COc1ccc(OC)c(-c2csc(NC(=O)C3CSC4(C)CCC(=O)N34)n2)c1 (stereo not drawn)	inconclusive: 10 µM [inhibitor, partial curve]	–
CC(=O)c1ccc(OCC(O)CN(C)CCOc2ccc(Br)cc2)cc1 (stereo not drawn)	inconclusive: 35.5 µM [inhibitor, single point]	–
CCN(c1ccccc1)S(=O)(=O)c1ccc(Oc2ccc(-n3ccnc3)cc2)nc1	inconclusive: 7.94 µM [inhibitor, partial curve, poor fit]	–

SMILES	Potency	activity change, negative = inhibition
COc1ccc(-n2nc(C(=O)N3CCN(c4ccc(F)cc4)CC3)c3ccccc3c2=O)c(OC)c1	inconclusive: 5.01 µM [inhibitor, partial curve, poor fit]	–
COc1ccccc1C(=O)Nc1ccc2c(c1)nc(CN1CCN(C(C)=O)CC1)n2C	inconclusive: 1.16 µM [inhibitor, partial curve, poor fit]	–
N#Cc1nc(-c2cccs2)oc1N1CCN(c2ccccc2)CC1	–	inactive: -1.48%
CCc1ccc(-c2cc(C(=O)NCc3ccccn3)c3ccccc3n2)cc1	inconclusive: 29.1 µM [inhibitor, single point]	–
Cc1cccc(OCC(O)Cn2c(=N)n(CCN3CCCCC3)c3ccccc32)c1 (stereo not drawn)	inconclusive: 15.8 µM [inhibitor, single point] and inconclusive: 18.3 µM [inhibitor, single point]	–
Nc1nncn1C(=O)c1ccc(Cl)cc1Cl	–	inactive: -37.9%
COc1ccc(CCNC(=O)c2cc(C(=O)c3cc(C)ccc3O)cn(CCc3ccc(OC)cc3)c2=O)cc1	active: 2.82 µM	–
COc1ccc(Oc2coc3c(CN(C)C)c(O)ccc3c2=O)cc1	–	inactive: -13.9%
O=C(COc1ccccc1)Nc1cc2c3c(c1)CC(=O)N3CCC2	inconclusive: 6.31 µM [activator, single point]	–
O=C(Nc1ccc(Cc2ccc(NC(=O)C3CC3)cc2)cc1)C1CC1	inconclusive: 8.2 µM [inhibitor, partial curve]	–
O=c1[nH]c(NCCO)nc2c1C1(CCCC1)Cc1ccccc1-2	inconclusive: 23.1 µM [inhibitor, partial curve, poor fit]	–
COc1ccc(CNC(=O)Cn2nc(N3CCN(c4ccccc4)CC3)ccc2=O)c(OC)c1	–	inactive: -6.39% [at 46.1 µM]
Cc1ccc(C)c(OCC(O)CN2C(C)CCCC2C)c1 (stereo not drawn)	inconclusive: 10 µM [inhibitor, partial curve, poor fit]	–
CN(C)c1ccc(S(=O)(=O)N(C)C)cc1NC(=O)Cc1cccc2ccccc12	inconclusive: 11.2 µM [inhibitor, single point]	–
CCN1CCN(c2nc3c(C)cccn3c(=O)c2/C=C(\C#N)S(=O)(=O)c2ccc(C)cc2)CC1	–	inactive: 9.09%
CCN1/C(=C/c2ccc3ccccc3[n+]2CC)C=Cc2ccccc21	active: 5.62 µM	–
O=S(=O)(c1ccccc1)c1nc(-c2cccs2)oc1NCCCn1ccnc1	–	inactive: 4.88%
COc1ccc(C(=O)c2c(N)sc3c2CCN(C(=O)OC(C)(C)C)C3)cc1	inconclusive: 22.4 µM [inhibitor, single point]	–
CCOC(=O)c1cn(Cc2c(C)c(C)c(C)c(C)c2C)nn1	inconclusive: 0.082 µM [inhibitor, full curve]	–
COc1ccc(N2CCN(S(=O)(=O)CCNC(=O)COc3ccccc3F)CC2)cc1	–	inactive: -1.25% [at 46.1 µM]
COc1ccc(-c2csc3ncnc(N4CCN(c5cccc(OC)c5)CC4)c23)cc1	–	inactive: -5.58%
CCN(CC)S(=O)(=O)c1ccc(C(=O)NCCSc2c(-c3ccc(C)cc3)[nH]c3ccccc23)cc1	inconclusive: 35.5 µM [inhibitor, single point]	–
